doi:10.1101/2022.08.21.504716
Results are given in words; binding and its absence hold for the method and conditions named. Binding seen in cells or lysates may run through a third protein. Some binding calls cover weakened binding; strength is not graded here. Tags and fused reporters may be left off the sequences shown.

Assays:
[1] = molecular target: T1, O-linked N-acetylglucosamine (O-GlcNAc) transferase (OGT), endogenous (human (endogenous in HeLa)) (UniProt O15294); assay: co-IP
T1 sequence: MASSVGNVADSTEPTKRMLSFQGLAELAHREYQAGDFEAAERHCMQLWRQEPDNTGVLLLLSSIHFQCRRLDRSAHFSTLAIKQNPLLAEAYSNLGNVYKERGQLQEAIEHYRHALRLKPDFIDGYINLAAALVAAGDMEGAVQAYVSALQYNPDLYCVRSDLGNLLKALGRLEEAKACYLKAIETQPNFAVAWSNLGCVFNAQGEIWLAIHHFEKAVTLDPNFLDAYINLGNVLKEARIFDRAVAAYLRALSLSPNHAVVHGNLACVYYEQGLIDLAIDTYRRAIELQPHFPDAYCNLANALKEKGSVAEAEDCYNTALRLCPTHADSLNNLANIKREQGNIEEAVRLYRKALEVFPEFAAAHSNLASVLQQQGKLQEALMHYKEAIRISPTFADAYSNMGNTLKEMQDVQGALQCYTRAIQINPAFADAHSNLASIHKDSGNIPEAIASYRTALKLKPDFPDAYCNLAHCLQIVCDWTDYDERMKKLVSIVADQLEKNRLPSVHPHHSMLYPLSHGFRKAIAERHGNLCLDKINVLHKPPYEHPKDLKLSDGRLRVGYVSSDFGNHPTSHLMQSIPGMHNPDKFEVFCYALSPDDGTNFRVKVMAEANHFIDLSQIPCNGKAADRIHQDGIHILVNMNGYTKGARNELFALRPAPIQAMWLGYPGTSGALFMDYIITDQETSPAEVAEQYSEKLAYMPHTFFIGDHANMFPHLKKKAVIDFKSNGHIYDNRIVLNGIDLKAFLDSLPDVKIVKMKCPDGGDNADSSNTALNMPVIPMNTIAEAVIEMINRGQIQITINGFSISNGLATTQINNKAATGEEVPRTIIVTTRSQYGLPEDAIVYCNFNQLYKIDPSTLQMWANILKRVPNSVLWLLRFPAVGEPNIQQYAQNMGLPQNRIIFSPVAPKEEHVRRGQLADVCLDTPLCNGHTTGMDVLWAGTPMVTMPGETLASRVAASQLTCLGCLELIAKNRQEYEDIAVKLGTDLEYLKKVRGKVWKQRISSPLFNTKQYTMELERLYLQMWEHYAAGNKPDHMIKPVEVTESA

Myc-OGT = molecular target: T2, Myc-OGT (UniProt O15294); assay: co-IP
T2 sequence: T1 sequence

Recombinant GST-OGT = molecular target: T3, Recombinant GST-OGT (UniProt O15294); assay: pull-down
T3 sequence: T1 sequence

binding [1]	binding (Myc-OGT)	binding (Recombinant GST-OGT)	Substance
binds			Polo-like kinase 1 (PLK1), endogenous (from UniProt P53350 1-603)
	binds	binds	Flag-PLK1 (wild type) (from UniProt P53350 1-603)
